# Laboratory results taken from article PMC7862700.
# Sequences of proteins named here, by UniProt entry; tags and fusion partners are left off. A change or cut given only in a name is not applied to a line headed by its entry.
# UniProt Q01892: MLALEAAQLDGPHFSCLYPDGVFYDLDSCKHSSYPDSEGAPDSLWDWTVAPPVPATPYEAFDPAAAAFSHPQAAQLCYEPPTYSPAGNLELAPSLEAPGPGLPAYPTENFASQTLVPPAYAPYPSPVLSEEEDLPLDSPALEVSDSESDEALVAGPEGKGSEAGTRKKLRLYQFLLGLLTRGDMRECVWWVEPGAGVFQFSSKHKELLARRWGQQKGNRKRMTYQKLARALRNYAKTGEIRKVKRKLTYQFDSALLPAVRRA
# The list shows a part of the results, in another mix than the full data. At the low end of the ranking the order means little.
# Target: T1, EHF (UniProt Q9NZC4)
# T1 sequence: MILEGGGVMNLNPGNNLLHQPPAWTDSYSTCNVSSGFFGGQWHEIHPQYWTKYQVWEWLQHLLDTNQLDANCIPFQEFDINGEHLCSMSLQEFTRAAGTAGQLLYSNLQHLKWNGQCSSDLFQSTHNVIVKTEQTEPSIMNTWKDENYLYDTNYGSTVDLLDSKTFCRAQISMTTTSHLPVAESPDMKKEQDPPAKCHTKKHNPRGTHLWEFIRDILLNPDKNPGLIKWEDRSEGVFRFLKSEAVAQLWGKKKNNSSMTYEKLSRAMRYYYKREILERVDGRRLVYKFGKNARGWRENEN
# Assay: DAPPL (digital affinity profiling via proximity ligation, sequencing)
# Settings: 10 mM Tris-HCl pH 7.5, 50 mM NaCl, 1 mM DTT, 4% glycerol, room temperature, 30 min; GST-TFs on glutathione beads, 16-mer random dsDNA library, 0.1% …; high values mean tight binding; double strand, one strand shown; scale: fold enrichment (6-mer frequency, TF over GST control)
row,Sequence,binding signal
1,AACCTG,1.22
2,TATGAC,1.23
3,TACGCG,1.06
4,GCTACT,1.33
5,GTCCTC,1.28
6,TATCGC,1.28
7,TGTTCC,1.83
8,ACGATA,1.15
9,CCATAC,1.19
10,ACTATA,1.29
11,AGTGCC,0.974
12,AGTGTT,1.02
13,TTCCTA,1.59
14,ATTGGC,1.15
15,TCATCC,1.38
16,AGTACA,1.13

# Target: SPIB (UniProt Q01892)
# Assay: as above
# Settings: 10 mM Tris-HCl pH 7.5, 50 mM NaCl, 1 mM DTT, 4% glycerol, room temperature, 30 min; GST-TFs on glutathione beads, 16-mer random dsDNA library, 0.1% …; high values mean tight binding; double strand, one strand shown; scale: fold enrichment (6-mer frequency, TF over GST control)
row,Sequence,binding signal
1,ACCTGG,1.31
2,CTTTGG,1.04
3,GCTTGG,1.16
4,ACGAAA,1.16
5,CCGGTC,1.08
6,ACCTGA,1.1
7,CGGCAT,1.19
8,CCCACC,1.13
9,TATGAC,1.4
10,TAGCAG,0.979
11,TAGATC,0.983
12,TGTGGC,1.09
13,CCTTCC,2.75
14,CACAAC,1.23
15,TAACTG,1.33
16,TGTTCC,1.8

row,Sequence,binding signal
1,ACGATA,1.23
2,TGTAAC,1.16
3,AATATT,1.34
4,TGCGAA,1.22
5,ACTATA,1.28
6,AAACCG,1.05
7,AAGTAG,1.13
8,AAGTGC,1.34
9,TTCTTG,1.39
10,TGACAT,1.19
11,CTTAAT,1.3
12,AGTGTT,1.15
13,TTCCTA,1.93
14,ATTGGC,1.13
15,AGTACA,1.07
16,CTATCC,1.4
